Assay results reported in US20070173545A1, “Activation of hypoxia-inducible gene expression” (priority 2003, published 2007).
Entries after “also recorded” stand apart in the source; their conditions may differ. At least one structure is not confirmed: it was looked up by name or label, or the drawing left a doubt.

Amino acid sequences for entries named in this document (tags omitted). A change or cut given only in a name is not applied to a line headed by its entry.
UniProt Q9H6Z9: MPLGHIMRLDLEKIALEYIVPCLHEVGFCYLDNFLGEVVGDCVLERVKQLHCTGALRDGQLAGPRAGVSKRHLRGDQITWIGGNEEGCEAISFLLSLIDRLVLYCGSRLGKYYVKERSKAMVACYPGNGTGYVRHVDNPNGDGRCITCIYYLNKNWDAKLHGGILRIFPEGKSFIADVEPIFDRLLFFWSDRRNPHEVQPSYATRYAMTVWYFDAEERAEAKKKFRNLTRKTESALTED

Experiments:
HPH = HPH activity of extracts of pretreated U251 cells (^35S-pVHL pulldown); format: cell-based, human; conditions: 100 μM ascorbate during the cell incubation
Procedure: FIG. 17: Inactivation of cellular HPH activity by pyruvate and oxaloacetate U251 cells were cultured for four hours in glucose-free Krebs buffer with or without the indicated additions. Whole cell extracts were then prepared and used as a source of HPH enzyme to hydroxylate a biotinylated peptide from the HIF-1a ODD containing proline 564. Proline hydroxylation was measured by the ability of streptavidin coated beads to pulldown the hydroxyproline ^35S-pVHL complex as in FIGS. 12-14.
To directly determine whether HPH activity had been inactivated by pyruvate or oxaloacetate treatment, we evaluated the ability of U251 cell extracts from pyruvate or oxaloacetate treated cells to hydroxylate HIF-1a peptide using the ^35S-pVHL pulldown assay (Ivan et al. (2002) Proc. Natl. Acad. Sci. USA 99, 13459-13466). In these experiments, ascorbate was omitted from the in vitro portion of the assay.

HIF-1a [1] = assay: Reversal of induced HIF-1a accumulation in U87 and U251 glioma cells; format: cell-based, human; conditions: ascorbate 100 μM, four hours
HPH-1 = HPH-1 (Homo sapiens, UniProt Q9H6Z9); assay: ^35S-pVHL capture assay, HPH-1; format: biochemical; parameters: made in house; host or cells: rabbit reticulocyte in vitro translation from expression plasmids; conditions: assay optimization shown for HPH-1, dose curves
HRE containing promoter = assay: HRE-luciferase reporter in U251 cells; format: cell-based, human; conditions: eight hours, oxaloacetate 1 mM, 2-oxoglutarate 10 mM
Excerpt: FIG. 18: 2-oxoacids activate HIF-mediated gene expression in human cell lines Effective gene expression by HIF not only involves HIF protein stabilization via inhibition of HPH enzymes but also HIF-1 binding to DNA, inhibition of FIH-1 activity, and gene transcription (see FIG. 1). (A) Glioma cells used in our studies express FIH-1 as assessed using RT-PCR. […] Expression of beta-actin, a housekeeping gene not under HIF regulation is not affected by pyruvate. […] (E) U373 cell were transfected with a green fluorescent protein (GFP) construct under the control of an HIF regulatory element (HRE) containing promoter and then cultured for eight hours in glucose-free medium under the indicated conditions. […] U251 cells stably transfected with a luciferase construct under the control of an HRE containing promoter were cultured for six hours in glucose free Krebs with the following conditions: 1=control, 2=1% oxygen, 3=pyruvate (2 mM), 4=OAA (2 mM), 5=Ethylpyruvate (2 mM), 6=Glucose (5.5 mM), 7=DMOG (0.5 mM), 8=Lactacystin-beta lactone ([…]).
FIG. 19: HIF-mediated gene expression is selectively reversed by ascorbate U251 cells stably expressing HRE-luciferase were cultured in glucose-free Krebs buffer with the indicated conditions for eight hours. Pyruvate, oxaloacetate, and DMOG were added at 1 mM each.
Effective gene expression by HIF not only involves HIF protein stabilization via inhibition of HPH enzymes but also HIF-1 binding to DNA, inhibition of FIH-1 activity, and gene transcription. The human gliomas that we utilized for most of our studies all express mRNA for FIH-1 (FIG. 18A). […] To directly assess activation of gene containing an HRE regulated promoter by the glucose metabolites pyruvate and oxaloacetate, we used U373 glioma cells transfected with an HRE-green fluorescent (HRE-GFP) construct that responds to HIF activation.

HIF-1a [2] = assay: HIF-1a decay after washout of the inducer in U251 and U87 cells; format: cell-based, human; conditions: 100 μM ascorbate in wash buffer after pyruvate or oxaloacetate induction
Procedure: FIG. 16: Ascorbate reverses the prolonged HIF-1a accumulation (A) Comparison of HIF-1a decay in U251 following induction with either hypoxia or pyruvate. U251 cells were cultured in glucose-free Krebs under hypoxia or with 1 mM pyruvate in normoxia for four hours. Following this cells were switched to glucose free Krebs in normoxia and fixed in formaldehyde at the indicated times. Cells were then stained for HIF-1a immunoreactivity. Note the rapid decay of nuclear HIF-1a staining after having been induced by hypoxia versus pyruvate. (B) U87 cell treated for four hours under hypoxia show prominent HIF-1a induction which is completely degraded by thirty minutes of re-oxygenation. U87 cells were treated in glucose-free Krebs buffer with or without 1 mM pyruvate or oxaloacetate.
HPH-2 has been reported to constitute the major HPH activity of most cells. We therefore evaluated the ability of ascorbate to prevent HIF-1a accumulation by pyruvate and oxaloacetate in living cells. […] To test this possibility we compared the reversibility of HIF-1a accumulation following induction with either hypoxia, pyruvate, or oxaloacetate. The rationale for these experiments stems from the well-known reversible inhibition of HPH activity by hypoxia (see FIG. 1). Thus HIF-1a accumulation and HIF activation during hypoxia is rapidly reversed upon re-oxygenation. […] On the other hand, pyruvate induced HIF-1a accumulation persists well past 40 minutes after washing out the pyruvate. […] To investigate whether the 2-oxoacid induced persistence in HIF-1a accumulation was due to HPH inactivation we repeated this experiment with 100 μM ascorbate added to the wash buffer.

Question: Which “Effect on pyruvate- or oxaloacetate-induced loss of cellular HPH activity” value (HPH) does the source give for `O=C1O[C@H]([C@@H](O)CO)C(O)=C1O` [ascorbate] here?
Answer: prevented this inhibition; also recorded: prevented this loss of activity

Question: What about the “Effect on hypoxia-induced HIF-1a accumulation” value (HIF-1a [1]) of the same compound?
Answer: not by hypoxia; also recorded: not under hypoxia

Question: What about the “Effect on pyruvate- or oxaloacetate-induced HIF-1a accumulation” value (HIF-1a [1]; pyruvate, OAA 1 mM, 2-oxoglutarate 10 mM) of the same compound?
Answer: complete inhibition of HIF-1a accumulation by pyruvate and ascorbate

Question: What about the “Requirement of substrates and co-factors for HPH activity” value (HPH-1) of the same compound?
Answer: dose-dependently enhanced activity

Question: What about the “Reversal of HRE-luciferase activation by pyruvate or oxaloacetate” value (HRE containing promoter) of the same compound?
Answer: reversibility with ascorbate; also recorded: selective reversal

Question: And the “Effect of ascorbate in the wash on HIF-1a decay” value (HIF-1a [2])?
Answer: markedly enhanced the decay rate of HIF-1a
